# Measured values: the supplement of paper PMC3334620
# In all, about 33,000 sequences were measured (“E-score (-0.5 to 0.5)”: median about -0.016, highest 2% from about 0.3 on). Some of the results follow.
# Biological target: T1, Yer184c (UniProt P39961)
# T1 sequence: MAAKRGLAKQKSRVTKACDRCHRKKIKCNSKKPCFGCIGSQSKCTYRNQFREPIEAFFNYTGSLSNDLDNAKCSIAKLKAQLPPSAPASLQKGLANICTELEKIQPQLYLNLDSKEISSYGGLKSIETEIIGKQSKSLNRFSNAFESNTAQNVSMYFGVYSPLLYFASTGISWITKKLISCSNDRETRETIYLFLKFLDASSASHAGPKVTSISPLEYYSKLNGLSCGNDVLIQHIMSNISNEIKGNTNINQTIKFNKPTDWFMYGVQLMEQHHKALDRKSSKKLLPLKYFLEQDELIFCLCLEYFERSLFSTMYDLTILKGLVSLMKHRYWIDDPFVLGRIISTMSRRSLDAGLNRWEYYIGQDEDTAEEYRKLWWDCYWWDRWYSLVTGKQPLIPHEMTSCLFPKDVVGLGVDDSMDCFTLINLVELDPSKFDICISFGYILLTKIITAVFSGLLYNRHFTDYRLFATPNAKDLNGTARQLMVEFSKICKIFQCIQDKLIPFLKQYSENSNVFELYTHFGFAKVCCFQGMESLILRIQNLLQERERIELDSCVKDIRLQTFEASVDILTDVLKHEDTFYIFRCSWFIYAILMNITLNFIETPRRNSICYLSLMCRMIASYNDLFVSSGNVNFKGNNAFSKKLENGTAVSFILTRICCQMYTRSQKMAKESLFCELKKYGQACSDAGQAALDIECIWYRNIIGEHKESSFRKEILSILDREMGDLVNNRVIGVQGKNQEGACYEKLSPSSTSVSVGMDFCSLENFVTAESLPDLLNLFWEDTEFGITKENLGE
# Assay: PBM E-score (8-mer binding enrichment) (E-score (-0.5 to 0.5)); higher = stronger / more preferred TF binding
# Conditions: protein concentration: 100 nM; construct: GST-full length
# How it was run: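 GST-tagged yeast TFs (full-length or DNA-binding domain) were made by PURExpress in vitro transcription/translation and applied at about 100-200 nM to universal all-10-mer Agilent arrays. The arrays were made double-stranded by primer extension, on fresh or once-stripped slides. Bound protein was detected with fluorescent anti-GST, and scans were normalised with masliner. Each ungapped eight-base word, pooled with its reverse complement, received an E-score (modified Wilcoxon-Mann-Whitney statistic) from the Universal PBM Analysis Suite.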
row,Sequence,PBM E-score
1,CAGCAAAA,-0.0176
2,CCCCCGCG,-0.109
3,CTCTTACC,0.2
4,CACCAACG,-0.113
5,AAAGCTAC,-0.162
6,CTCCTCTA,-0.197
7,GACGGAAA,0.213
8,CTTGCCCA,-0.0923
9,AGGAAACC,0.116
10,AGTCAGTG,-0.206
11,ACACGGGG,-0.0862
12,AAATTTCG,0.146
13,AGCAGCCT,-0.307
14,CCGTAAAA,0.243
15,GGGTAAAA,0.143
16,GAAGTACC,0.0817
17,GTCTCGCA,-0.0807
18,GGCCCCCC,-0.289
19,GAAATAGA,0.249
20,CAGTCGTA,0.0279
21,ACATAGGC,-0.133
22,ATAGCCAC,-0.0617
23,CCGATGTA,-0.0382
24,CTTCTACC,-0.103
25,AAAGTACC,0.0107

# Some of the entries so far, as tab-separated lines:
row	Sequence	PBM E-score
5	AAAGCTAC	-0.162
6	CTCCTCTA	-0.197
10	AGTCAGTG	-0.206
14	CCGTAAAA	0.243
22	ATAGCCAC	-0.0617

# (list continues)

row,Sequence,PBM E-score
1,TATAGAAA,0.132
2,AGACCGTC,-0.122
3,CCTCCGCG,0.123
4,GTTCGCAA,0.168
5,ACTATAGT,0.207
6,AATATCAG,0.067
7,CTGCGGGC,-0.00643
8,CTGCGGCC,0.08
9,CTTAAAAC,0.248
10,CATTAAAG,0.0705
11,CGCTAGAC,-0.233
12,AATCGGGT,0.173
13,ACAACACC,0.0736
14,AAGGCCTG,-0.215
15,AGCGGGGC,-0.154
16,AGCGAATG,-0.173
17,ACCATACG,-0.0112
18,GGTTTACA,0.118
19,AAACATGC,-0.00781
20,AGTAACGC,-0.105
21,ATTAGCTG,-0.00785
22,GCTTCAGA,0.0432
23,ATCCAAAA,0.215
24,CCATAAGA,-0.0477
25,CTCATGAG,-0.0289

row,Sequence,PBM E-score
1,GAACTAGC,-0.00217
2,CAGAAACG,0.169
3,GCGTCACC,-0.329
4,AACCTTCC,-0.0555
5,CTGAAATA,0.118
6,ATCGAAAA,0.172
7,AAAGTTTA,0.214
8,TAATTACA,0.169
9,CGGGCGCA,0.106
10,GATGAAAC,0.126
11,AGCCGCTG,0.0377
12,ACCCGTGA,-0.063
13,CACCTTCA,-0.287
14,ACCACACC,-0.227
15,CTGCTAAC,-0.0371
16,AAGGAGGT,-0.248
17,GGGACCCC,-0.348
18,CTCCTCGC,-0.236
19,AGCCGCTC,0.0879
20,ATATGCGG,0.111
21,CAAGTACC,0.0757
22,ACGGAGTG,0.0134
23,AGCGCCAT,-0.249
24,AGATCCCT,-0.229
25,AACTCTAG,-0.145

row,Sequence,PBM E-score
1,AGGTCGGC,0.0664
2,AAAATGAG,-0.0562
3,CACAGGGG,-0.376
4,CACTGTGC,-0.0193
5,AATGACGG,0.19
6,TGCGAACA,0.06
7,GGGGAAGA,-0.148
8,ATCGCTAG,-0.0934
9,ACCATCCC,-0.0549
10,CTTCCCTA,-0.13
11,ACTCCAAA,-0.126
12,AGTTGCCA,-0.0248
13,CCTGTCGA,-0.093
14,CTGGTAAC,0.00552
15,GCACCCAC,0.0359
16,ATAAGCGG,-0.122
17,AATCTGGG,-0.209
18,AAGGGGAA,-0.101
19,AGCTAGGA,0.00172
20,AACAGACT,-0.0245
21,ACTAGGAT,0.0501
22,CCCGTACC,0.0297
23,AAGACAGT,0.0136
24,AGTAGAAG,-0.127
25,ACAGGGGC,-0.213

row,Sequence,PBM E-score
1,CAGTGGTA,-0.206
2,CCCCGAAC,-0.00623
3,AGTATTTC,0.277
4,GATTCTCC,-0.0624
5,TATGTGGA,0.124
6,ATGACCGG,0.00805
7,CCCCTGAC,-0.0911
8,AAACTCGT,-0.061
9,CCCTTCAA,-0.0283
10,ACTCGAGC,-0.103
11,AAATCGGT,0.0224
12,TAGGAGAA,-0.118
13,AAACTGAG,-0.0387
14,AACGATCA,-0.0294
15,CAGTTAGC,-0.308
16,GTGGCCGA,0.123
17,GTGGATTA,-0.0384
18,AGCAGGAC,0.00291
19,CACTCAGA,0.0188
20,CCATAGTA,-0.0362
21,AGTGAACG,-0.0272
22,CTGCTACC,-0.153
23,ATCGTGAC,0.0587
24,CAATTACC,-0.0806
25,ATTCTCGA,0.0246

# As a working copy, part of the list above.
row,Sequence,PBM E-score
12,TAGGAGAA,-0.118
13,AAACTGAG,-0.0387
14,AACGATCA,-0.0294
15,CAGTTAGC,-0.308
16,GTGGCCGA,0.123

# (further entries)

row,Sequence,PBM E-score
1,GCTTAGTA,0.0166
2,ATTTTATC,0.193
3,AGAGGCCC,-0.306
4,AGCGATTC,-0.049
5,GCCAACCC,-0.059
6,GAGGTTAA,0.00325
7,ACTCCTTG,-0.197
8,ACGCTACC,-0.246
9,AAATACGA,0.0747
10,GCCATCGA,0.0494
11,CAGGAGGC,-0.189
12,CACGAGGC,0.0429
13,CGGCAAAA,0.152
14,CGGTCGTA,-0.0403
15,GCAAAAGC,0.0874
16,GGGGTCCA,-0.319
17,CAAGGTAG,-0.161
18,ACGAGGCA,-0.161
19,ATCTAAAT,0.211
20,CTTCGGTC,0.309
21,CTTTCGCA,-0.104
22,AACTAAAC,-0.015
23,CGCCGGAG,0.222
24,CGTGTGAG,-0.101
25,CATCGACC,0.00819

row,Sequence,PBM E-score
1,GAATGATA,0.301
2,AAAACTCA,0.229
3,ACGGCACT,0.0818
4,AAGCAATT,0.244
5,AGATGTGA,-0.00263
6,TATGAAGA,0.184
7,GCATTTTA,0.12
8,CTTACGCC,-0.0367
9,TACATCGA,-0.0985
10,ATCGGGTA,-0.0845
11,CCAGTTCG,0.00522
12,AGGAATCC,-0.0673
13,ATCGAAAC,0.212
14,GTACCAAC,0.114
15,CCTGCGCA,-0.316
16,GCCTAAAA,-0.0985
17,CAGGCCCA,-0.211
18,ACGCTGAC,-0.00324
19,CCGTCCTA,-0.23
20,ACAGCTAT,-0.241
21,ACGCGTTG,-0.036
22,GCTGTTAA,0.129
